# Assay results reported in PubChem BioAssay AID1439 (NMMLSC, 2008).
# Chains of the proteins cited; added tags and fusions are not shown.
# UniProt P09471, whole entry, looked up: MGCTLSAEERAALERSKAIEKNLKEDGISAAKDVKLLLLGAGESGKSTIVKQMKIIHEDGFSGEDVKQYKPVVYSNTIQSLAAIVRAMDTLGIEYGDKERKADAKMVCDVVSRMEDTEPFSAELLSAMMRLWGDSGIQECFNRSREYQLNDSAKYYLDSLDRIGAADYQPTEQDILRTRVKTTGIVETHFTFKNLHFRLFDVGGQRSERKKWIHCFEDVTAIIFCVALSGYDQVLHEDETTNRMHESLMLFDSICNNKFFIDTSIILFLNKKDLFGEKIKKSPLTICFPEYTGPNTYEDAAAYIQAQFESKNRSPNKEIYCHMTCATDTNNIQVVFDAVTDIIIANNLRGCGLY
# Hit rate of the full screen: of about 220,000 compounds, about 770 (0.35%) were called active. Inconclusive means that the source gave no clear call. Such entries were picked first, then a sample of the others. Rule as the data show it: active = binding response below about 49% or above about 150%; inconclusive = no clear call, values can overlap the other calls; inactive = in between.
# Target: Guanine nucleotide-binding protein G(o) subunit alpha (Homo sapiens) (UniProt P09471)
# Test: compounds changing RGS7 association with Galphao – biochemical, multiplexed bead flow cytometry, primary screen (AID 1439);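 also: fluorescent Galphao held in activated GDP-AlF4 state binding bead-coupled RGS7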
# Conditions: at 10 µM, actives lie on both sides
row,SMILES,binding response (% of control)
1,CCCCn1c(O)c(C(C)=Nc2ccc3c(c2)CCC3)c(=O)[nH]c1=O,inconclusive: 69.1%
2,COc1ccc(CCNC(=O)c2c(N)n(CCN3CCOCC3)c3nc4ccccc4nc23)cc1,inactive: 104%
3,COc1ccc(CNC(C)Cc2cccs2)cc1 (stereo not drawn),inconclusive: 111%
4,CCCCn1c(O)c(/C(C)=N/NC(=O)Nc2ccccc2)c(=O)[nH]c1=O,inconclusive: 88.1%
5,COc1ccc(N2C(=O)NC(=O)/C(=C\c3ccc([N+](=O)[O-])s3)C2=O)cc1,inconclusive: 45.1%
6,Cc1cccc(OP(=O)(NCc2ccccc2)Oc2cccc(C)c2)c1,inactive: 100%
7,CCCC[N+]12CCC(CC1)C(=C(c1ccccc1)c1ccccc1)C2,inactive: 113%
8,NC(CC(=O)O)C1CCCCC1 (stereo not drawn),inconclusive: 101%
9,CC1(C)N=C(c2ccccc2)[C@@H]2C(c3ccc([N+](=O)[O-])cc3)N21 (stereo partly drawn),inactive: 103%
10,CCCCS(=O)(=O)N1CCN(C(=N)N[N+](=O)[O-])CC1,inactive: 95.4%
11,COP(=O)(NC(=O)C(Cl)(Cl)Cl)OC,inconclusive: 27.8%
12,NC1=Nc2ccccc2Oc2ccccc21,inactive: 105%
13,CCC(=O)OC1(c2ccccc2)CCN(C)CC1C (stereo not drawn),inactive: 94.6%
14,CN(C)c1ccc(C=C2C(=O)NC(=O)NC2=O)cc1[N+](=O)[O-],inconclusive: 47.2%
15,O=C(CN1CCCCC1)c1ccc2c(c1)OCO2,inconclusive: 114%
16,C/C(=N\N1CCCCCC1)c1c(O)n(C2CCCCC2)c(=O)[nH]c1=O,inconclusive: 91.7%
17,C=CCn1c(O)c(C(CC)=NCCN2CCN(C(=S)NC)CC2)c(=O)[nH]c1=O,inconclusive: -430%
18,CC/C(=N\NC(=O)Nc1ccccc1)c1c(O)n(Cc2ccccc2)c(=O)[nH]c1=O,inconclusive: 106%
19,Cc1cccc(-n2c(O)c(/C=N/NC(=O)c3ccncc3)c(=O)[nH]c2=O)c1,inconclusive: 97.4%
20,O=C(C(=O)N1CCOCC1)c1cn(Cc2ccc(F)cc2)c2ccccc12,inconclusive: 111%
21,Cc1nn(Cc2ccc(Cl)cc2Cl)c(Cl)c1C(=O)O,inconclusive: 92.6%
22,COC(=O)c1ccc(N2CCN(C)CC2)c([N+](=O)[O-])c1,inconclusive: 138%
23,c1nc2nc3c(c(N4CCNCC4)n2n1)CCCC3,inconclusive: 90.3%
24,CCOP(=O)(OCC)/C(C#N)=C/c1ccoc1,inconclusive: 104%
25,CC12CN3CN(C1)CC(c1ccccc1)(C3)C2=O,inactive: 91.7%
26,CC(Cc1cccs1)NCc1ccc(Cl)cc1 (stereo not drawn),inconclusive: 98.8%
27,CC(=O)Nc1cc(C(=O)N2CCC3(CC2)OCCO3)ccc1Sc1ccc(F)cc1,inconclusive: 89.5%

# A section from further up:
row,SMILES,binding response (% of control)
9,CC1(C)N=C(c2ccccc2)[C@@H]2C(c3ccc([N+](=O)[O-])cc3)N21 (stereo partly drawn),inactive: 103%
10,CCCCS(=O)(=O)N1CCN(C(=N)N[N+](=O)[O-])CC1,inactive: 95.4%

# Following part:

row,SMILES,binding response (% of control)
1,CC1CCN(c2cc(Br)c([N+](=O)[O-])cc2F)CC1,inconclusive: 100%
2,Clc1cccc(C2NCc3ccccc3-n3cccc32)c1 (stereo not drawn),inconclusive: 145%
3,COc1cc(NC(=O)CN2C3CCC2CC(O)(c2cccnc2)C3)cc(OC)c1 (stereo not drawn),inactive: 113%
4,CCCCn1c(O)c(/C=N/N2CCOCC2)c(=O)[nH]c1=S,inconclusive: 101%
5,O=C1NC(=O)N(Cc2ccco2)C(=O)/C1=C\c1ccc(-c2ccc(F)cc2)o1,inconclusive: 75.2%
6,COc1cc(C=C2C(=O)NC(=O)NC2=O)ccc1O,inconclusive: -257%
7,Cc1c(C(=O)c2ccccc2)c2ccccc2n1C,inconclusive: 108%
8,C(=N\NC1=NCCCCC1)/c1c[nH]c2ccccc12,inconclusive: 70.4%
9,O=C(Cc1ccc([N+](=O)[O-])cc1)N1CCN(Cc2ccc3c(c2)OCO3)CC1,inconclusive: 85.4%
10,N#CC(C#N)=NNc1ccc(-n2ccc(C(F)(F)F)n2)cc1,inconclusive: 109%
11,Cc1cc(/C=C2/C(=O)NC(=O)N(C)C2=O)c(C)n1-c1ccccc1,inconclusive: 96.6%
12,O=C1NC(=O)C(=Cc2coc3ccc(O)cc3c2=O)C(=O)N1,inconclusive: 87.4%
13,COC(=O)C(O)(c1ccc(NC(=O)c2ccccc2)cc1)C(F)(F)F (stereo not drawn),inconclusive: 66.7%
14,CN1CCN(c2c(F)cc([N+](=O)[O-])c(N)c2Br)CC1,inconclusive: 122%
15,COc1cccc(CN2CCCC(C(=O)c3ccccc3SC)C2)c1O (stereo not drawn),inconclusive: 32.8%
16,CC[N+](C)(CC)CCCCOc1ccc2c(c1)C(=O)c1cc(OCCCC[N+](C)(CC)CC)ccc1-2,inconclusive: 96.4%
17,O=C(O)c1[nH]c(=O)[nH]c(=O)c1F,inconclusive: 30.4%
18,CCN(CC)CCCOC(=O)C(OC(C)C)(c1ccccc1)c1ccccc1,inactive: 103%
19,CC(=NCCCn1ccnc1)c1c(O)n(C2CCCCC2)c(=O)[nH]c1=O,inconclusive: 78.3%
20,CCC(C)n1c(O)c(C=NCC2CCCO2)c(=O)[nH]c1=S (stereo not drawn),inconclusive: 78.5%
21,COc1nc(NCC2CCCO2)nc(N2CC3CC(C2)c2cccc(=O)n2C3)n1 (stereo not drawn),inconclusive: 128%
22,C[N+](C)(C)c1ccccc1,inactive: 113%
23,CC(C)(C)P(=O)(N1CCOCC1)N1CCOCC1,inconclusive: 99.8%
24,COc1cccc([C@@]2(O)CCCC[C@@H]2CN(C)C)c1,inconclusive: 102%
25,Cn1cc(NC(=O)CCl)cn1,inactive: 103%
26,Clc1ccc2c(c1)C(c1ccccc1Cl)=NCc1nnc(N3CCN(CCOc4ccccc4)CC3)n1-2,inactive: 99%

# Some of the entries so far, tab-delimited.
row	SMILES	binding response (% of control)
8	C(=N\NC1=NCCCCC1)/c1c[nH]c2ccccc12	inconclusive: 70.4%
9	O=C(Cc1ccc([N+](=O)[O-])cc1)N1CCN(Cc2ccc3c(c2)OCO3)CC1	inconclusive: 85.4%
10	N#CC(C#N)=NNc1ccc(-n2ccc(C(F)(F)F)n2)cc1	inconclusive: 109%
